Results reported in patent US20100061928A1, “LABELLED ANALOGUES OF HALOBENZAMIDES AS RADIOPHARMACEUTICALS” (Institut National De La Sante et De La Recherche Medicale …, priority 2006, published 2010).

Test system: tumour
Assay: Dosimetry with regard to the tumour (MIRD programme, extrapolated to ^131I)
Settings: for Dose absorbed: dose delivered to the tumour, extrapolated to 131I labelling; for dose delivered to the tumour with respect to BZA: extrapolated to labelling with ^131I

| Compound | Dose absorbed [cGy/μCi injected] | dose delivered to the tumour with respect to BZA [×] |
| --- | --- | --- |
| CCN(CC)CCNC(=O)c1ccc(I)cc1 [BZA, N-(2-diethylaminoethyl)-4-iodobenzamide, reference compound] | 1.00 |  |
| CCN(CC)CCNC(=O)c1ccc2cc(I)ccc2c1 [compound 3, N-(2-diethylaminoethyl)-6-iodo-2-naphthamide hydrochloride] | 1.63 |  |
| CCN(CC)CCNC(=O)c1ccc(I)nc1 [compound 7, N-(2-diethylaminoethyl)-6-iodonicotinamide dihydrochloride] | 1.58 |  |
| CCN(CC)CCNC(=O)c1cc2cc(I)ccc2[nH]1 [compound 10, N-(2-diethylaminoethyl)-5-iodoindole-2-carboxamide hydrochloride] | 0.89 |  |
| CCN(CC)CCNC(=O)c1cc2c(I)cccc2s1.Cl [compound 13, N-(2-diethylaminoethyl)-4-iodobenzo[b]thiophene-2-carboxamide hydrochloride] | 1.72 |  |
| CCN(CC)CCNC(=O)c1nc2ccccn2c1I [compound 16, N-(2-diethylaminoethyl)-3-iodoimidazo[1,2-a]pyridine-2-carboxamide dihydrochloride] | 0.13 |  |
| CCN(CC)CCNC(=O)c1nc2ccc(I)cc2[nH]1.Cl.Cl [compound 26, N-(2-diethylaminoethyl)-5-iodobenzimidazole-2-carboxamide dihydrochloride] | 3.05 | 3 |
| CCN(CC)CCNC(=O)c1ccc2cc(I)ccc2n1.Cl.Cl [compound 31, N-(2-diethylaminoethyl)-6-iodoquinoline-2-carboxamide dihydrochloride] | 3.67 | 3.7 |
| CCN(CC)CCNC(=O)c1c[nH]c2ccc(I)cc2c1=O [compound 35, N-(2-diethylaminoethyl)-1,4-dihydro-6-iodo-4-oxoquinoline-3-carboxamide dihydrochloride] | 1.36 |  |
| CCN(CC)CCNC(=O)c1cc2c(I)cccc2cn1 [compound 39, N-(2-diethylaminoethyl)-5-iodoisoquinoline-3-carboxamide dihydrochloride] | 1.86 |  |
| CCN(CC)CCNC(=O)c1cnc2cc(I)ccc2n1.Cl.Cl [compound 46, N-(2-diethylaminoethyl)-6-iodoquinoxaline-2-carboxamide dihydrochloride] | 4.93 | 4.9 |
| CCCN(CCC)CCCCNC(=O)c1ccc2cc(I)ccc2n1 [compound 49, N-(4-dipropylaminobutyl)-6-iodoquinoline-2-carboxamide dihydrochloride] | 5.75 | 5.8 |
| CCN(CC)CCNC(=O)c1ccc2cncc(I)c2n1.Cl.Cl [compound 142, N-(2-diethylaminoethyl)-8-iodo-1,6-naphthyridine-2-carboxamide dihydrochloride] | 3.56 |  |
| CCN(CC)CCNC(=O)c1cccc2nc3cc(I)ccc3nc12 [compound 151, N-(2-diethylaminoethyl)-7-iodophenazine-1-carboxamide dihydrochloride] | 3.70 | 3.7 |

Structures can show the parent of a compound that is named as a salt.
